Results are given in words; binding and its absence hold for the method and conditions named. For part of these data: Binding seen in cells or lysates may run through a third protein. Some entries that bind do so weakly or less than the wild type. For part of these data: Where a sequence is shown, tags or fusion partners need not be part of it.
Columns and labels:
[1] = molecular target: T1, PDZD8-3×HA (endogenous PDZD8 of the Pdzd8-3×HA knock-in mouse) (mouse (endogenous in neocortex, knock-in)) (UniProt B9EJ80); assay: co-IP
T1 sequence: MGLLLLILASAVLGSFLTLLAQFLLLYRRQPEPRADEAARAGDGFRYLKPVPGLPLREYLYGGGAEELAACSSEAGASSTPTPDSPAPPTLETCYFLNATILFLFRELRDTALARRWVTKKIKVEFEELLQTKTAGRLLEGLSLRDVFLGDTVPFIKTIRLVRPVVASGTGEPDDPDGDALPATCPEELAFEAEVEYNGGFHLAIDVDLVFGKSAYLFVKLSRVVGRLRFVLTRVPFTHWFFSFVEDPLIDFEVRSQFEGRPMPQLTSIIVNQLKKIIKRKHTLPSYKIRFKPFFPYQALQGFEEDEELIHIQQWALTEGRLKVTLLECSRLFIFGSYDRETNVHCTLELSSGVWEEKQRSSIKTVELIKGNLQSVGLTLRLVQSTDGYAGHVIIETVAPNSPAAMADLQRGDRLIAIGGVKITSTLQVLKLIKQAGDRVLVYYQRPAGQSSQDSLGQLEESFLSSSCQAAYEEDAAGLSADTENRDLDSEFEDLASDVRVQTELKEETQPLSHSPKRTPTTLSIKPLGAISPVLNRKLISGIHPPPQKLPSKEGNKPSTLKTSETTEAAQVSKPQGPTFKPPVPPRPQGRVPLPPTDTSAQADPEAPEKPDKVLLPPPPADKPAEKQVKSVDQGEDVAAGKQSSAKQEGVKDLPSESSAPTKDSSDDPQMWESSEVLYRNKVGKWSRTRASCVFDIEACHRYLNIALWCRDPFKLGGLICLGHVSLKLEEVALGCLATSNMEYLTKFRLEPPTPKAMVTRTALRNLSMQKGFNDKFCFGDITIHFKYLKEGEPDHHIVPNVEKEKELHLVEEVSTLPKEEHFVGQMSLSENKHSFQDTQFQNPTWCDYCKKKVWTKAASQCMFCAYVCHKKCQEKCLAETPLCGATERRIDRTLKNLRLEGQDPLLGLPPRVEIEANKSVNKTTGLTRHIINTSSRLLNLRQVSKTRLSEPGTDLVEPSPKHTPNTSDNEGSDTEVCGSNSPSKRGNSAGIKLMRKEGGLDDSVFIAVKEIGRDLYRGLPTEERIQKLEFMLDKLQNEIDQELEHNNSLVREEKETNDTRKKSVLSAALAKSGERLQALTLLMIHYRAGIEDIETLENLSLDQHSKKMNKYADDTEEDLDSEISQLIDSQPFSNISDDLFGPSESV

Chains of the proteins cited; added tags and fusions are not shown. Residues count along the entry.
UniProt O35465: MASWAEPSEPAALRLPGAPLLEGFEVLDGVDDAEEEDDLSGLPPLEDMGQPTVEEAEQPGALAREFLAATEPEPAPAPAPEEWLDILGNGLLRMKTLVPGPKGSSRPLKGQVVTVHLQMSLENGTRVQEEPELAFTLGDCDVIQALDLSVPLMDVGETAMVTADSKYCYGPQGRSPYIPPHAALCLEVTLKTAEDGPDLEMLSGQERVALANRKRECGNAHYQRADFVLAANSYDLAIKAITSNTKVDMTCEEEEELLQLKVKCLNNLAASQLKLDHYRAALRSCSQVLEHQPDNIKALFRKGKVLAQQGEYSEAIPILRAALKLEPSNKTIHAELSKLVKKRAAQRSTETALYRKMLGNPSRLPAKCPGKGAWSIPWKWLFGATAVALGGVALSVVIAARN
UniProt Q14318, residues 1-380: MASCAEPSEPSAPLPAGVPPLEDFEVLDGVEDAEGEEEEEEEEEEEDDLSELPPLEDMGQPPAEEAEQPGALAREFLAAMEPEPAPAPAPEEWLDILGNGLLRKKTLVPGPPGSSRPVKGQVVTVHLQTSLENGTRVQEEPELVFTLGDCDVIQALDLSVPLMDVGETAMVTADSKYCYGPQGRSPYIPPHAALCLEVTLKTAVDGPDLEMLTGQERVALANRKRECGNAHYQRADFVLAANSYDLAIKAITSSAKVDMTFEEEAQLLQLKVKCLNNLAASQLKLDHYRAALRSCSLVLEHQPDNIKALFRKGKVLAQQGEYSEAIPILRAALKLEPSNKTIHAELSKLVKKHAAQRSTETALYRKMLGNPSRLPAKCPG

[2] = molecular target: T2, PDZD8-Venus (endogenous PDZD8 of Pdzd8-Venus KI NIH3T3 cells) (mouse (endogenous in NIH3T3, knock-in)) (UniProt B9EJ80); assay: co-IP
T2 sequence: T1 sequence

[3] = molecular target: T3, Recombinant GST - Thrombin cleavage site - human PDZD8 (1,28-506) - HA (human) (UniProt Q8NEN9); assay: pull-down
T3 sequence: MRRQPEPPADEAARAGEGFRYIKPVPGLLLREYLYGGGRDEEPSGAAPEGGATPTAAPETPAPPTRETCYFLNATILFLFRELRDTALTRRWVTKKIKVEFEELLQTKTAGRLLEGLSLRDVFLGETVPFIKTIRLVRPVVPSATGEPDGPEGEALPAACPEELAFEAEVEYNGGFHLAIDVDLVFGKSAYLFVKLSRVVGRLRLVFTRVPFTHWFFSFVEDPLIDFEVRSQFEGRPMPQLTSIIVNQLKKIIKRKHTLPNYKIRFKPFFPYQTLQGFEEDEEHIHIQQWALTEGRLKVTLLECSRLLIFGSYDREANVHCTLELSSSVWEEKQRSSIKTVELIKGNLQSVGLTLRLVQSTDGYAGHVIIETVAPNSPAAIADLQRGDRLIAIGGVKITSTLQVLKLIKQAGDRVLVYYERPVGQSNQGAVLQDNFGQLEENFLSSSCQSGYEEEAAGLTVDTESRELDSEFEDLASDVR

Substance: FK506 binding protein 8 (FKBP8), endogenous, mouse neocortex (from UniProt O35465 1-402)
- binding [1]: binds

Substance: FKBP8, endogenous, NIH3T3 cells (from UniProt O35465 1-402)
- binding [2]: binds

Substance: Recombinant human FKBP8 (1-380) - Histag (from UniProt Q14318 1-380) (domain or fragment)
- binding [3]: binds
